Several values for one entry are separate records, joined by “and”; a condition that tells them apart may be missing. Equal entries are not always repeated. Among all 300,000 compounds or so, about 5,400 (1.8%) were called active. Inconclusive results, whose numbers are uncertain, are shown with a selection of clear calls. Calls come from the whole dose curve; tested in HEK293 cells. Where the call is inconclusive, the potency comes from a doubtful curve fit.
Experiment: qHTS for inhibitors of binding or entry into cells for Marburg Virus
Details: Marburg virus pseudotyped entry inhibition, cell reporter; activity change, negative = inhibition: at 37.8 µM (top of the series) unless noted
% is set by controls: 0 for no effect and ±100 for the full control effect; potency is the fitted concentration of half-maximal effect.

Structure (SMILES)	Potency	activity change, negative = inhibition
Cc1cc(C(=O)OCC(=O)N2C(C)CCCC2C)c(C)o1 (configuration not stated)	inconclusive: 35.5 µM [activator, partial curve, poor fit]	
CCOC(=O)Cn1c(S(=O)(=O)Cc2ccccc2Cl)nc(-c2ccccc2)c1-c1ccccc1	active: 5.17 µM	
O=C(CCNS(=O)(=O)c1ccc(Cl)cc1)N1CCN(c2ncccn2)CC1	inconclusive: 7.94 µM [activator, partial curve, poor fit]	
O=C(O)C1CCN(S(=O)(=O)c2ccc(N3CCOCC3)c([N+](=O)[O-])c2)CC1		inactive: 8.57%
CC(Sc1nnc(-c2cccnc2)n1N)C(=O)N1CCOCC1 (configuration not stated)	inconclusive: 6.31 µM [inhibitor, single point]	
CSCCC(NS(=O)(=O)c1c(Cl)cccc1Cl)C(=O)O (configuration not stated)	inconclusive: 1.12 µM [activator, partial curve, poor fit]	
CCOC(=O)c1c(C)n(-c2ccc(C)cc2)c2ccc(O)c(CN(C)C)c12	inconclusive: 11.2 µM [inhibitor, partial curve, poor fit]	
CS(=O)(=O)c1ccc2nc(NC(=O)c3cccc(NS(=O)(=O)c4ccc(F)c(F)c4)c3)sc2c1		inactive: 7.47%
CCn1c(C)csc1=NC(=O)c1ccccc1	inconclusive: 0.0651 µM [inhibitor, full curve, poor fit]	
O=[N+]([O-])c1cc(S(=O)(=O)N2CCCC2)ccc1N/N=C/c1cccnc1	inconclusive: 6.31 µM [activator, single point]	
Cc1c(NC(=S)N/N=C/C=C/c2ccc([N+](=O)[O-])cc2)c(=O)n(-c2ccccc2)n1C		inactive: 3.61%
O=C(NCCN1CCN(c2ccccc2F)CC1)c1cccn2c(=O)c3ccccc3nc12	inconclusive: 23.1 µM [inhibitor, single point]	
CC(=O)NC(c1ccc(C)cc1)c1cc(Cl)c2cccnc2c1O (configuration not stated)	active: 2.82 µM	
Cc1ccc(/C=C/C(=O)Nc2cc(C)on2)cc1	inconclusive: 35.5 µM [inhibitor, single point]	
Cc1ccc(NC(=O)c2cccc(S(=O)(=O)N3CCN(c4ccc(F)cc4)CC3)c2)nc1	inconclusive: 5.62 µM [inhibitor, full curve, poor fit]	
Cn1c(=O)c2c(nc(Br)n2CC(=O)c2cccs2)n(C)c1=O		inactive: 16%
O=C(N/N=C/c1cccc(OCc2ccccc2)c1)c1cccs1		inactive: 10.2%
CCc1noc(C)c1C(=O)Nc1ccc(S(=O)(=O)N2CCCCC2)cc1		inactive: -28.8% [at 46.1 µM]
Cc1ccc(S(=O)(=O)N(CC(O)CN(C)C)c2ccccc2)cc1 (configuration not stated)	inconclusive: 3.16 µM [activator, single point]	
COc1ccc(-c2nnc(CSc3nc4ccccc4c(=O)n3CC(C)C)o2)cc1OC		inactive: -11.8%
Cc1ccc(S(=O)(=O)NCCSCc2ccccc2)cc1	inconclusive: 3.98 µM [activator, partial curve, poor fit]	
CC(=O)c1ccc(NC(=O)CO/N=C(\C)c2cccs2)cc1	inconclusive: 0.794 µM [activator, full curve, poor fit]	
Cc1ccc(OCc2cc(=O)n3c(-c4ccccc4)csc3n2)cc1		inactive: -3% [at 46.1 µM]

Structure (SMILES)	Potency	activity change, negative = inhibition
Cc1ccc(C=NNC(=O)c2cc(-c3cccnc3)nc3ccccc23)o1	inconclusive: 1 µM [inhibitor, full curve, poor fit]	
Cc1ccc(C)c(NS(=O)(=O)c2cc(C(=O)NCCC3=CCCCC3)ccc2C)c1	inconclusive: 0.164 µM [inhibitor, full curve, poor fit]	
CC(C)Oc1ccccc1/C=N/Nc1ccccc1[N+](=O)[O-]	inconclusive: 35.5 µM [inhibitor, single point]	
O=C(CCCn1cncn1)N1CCCC(N2CCN(c3ccccc3F)CC2)C1 (configuration not stated)	inconclusive: 6.31 µM [activator, single point]	
Fc1ccc(-c2cc3nc(-c4ccccc4)cc(N4CCN(CCN5CCOCC5)CC4)n3n2)cc1	inactive and inconclusive: 32.6 µM [inhibitor, single point]	
CC(Sc1nc2cc([N+](=O)[O-])ccc2n1-c1ccc(F)cc1)C(=O)NCc1ccc2c(c1)OCO2 (configuration not stated)	inconclusive: 6.51 µM [activator, single point]	
Cc1ccc(CN2C(=O)c3ccccc3NC2c2cc(Br)ccc2O)cc1 (configuration not stated)	inconclusive: 35.5 µM [inhibitor, single point]	
CCCOc1cccc(C(=O)N2CCCCC2CCN2CCCCC2)c1 (configuration not stated)	inconclusive: 5.01 µM [inhibitor, full curve, poor fit]	
O=C(Cc1c(F)cccc1Cl)Nc1ccccc1-c1ccccc1	inconclusive: 12.6 µM [inhibitor, partial curve, poor fit]	
O=C(O)Cn1c(SCCOc2ccccc2)nc2ccccc21		inactive: 13.2%
Cc1ccc(S(=O)(=O)Nc2cc3c(C(=O)Nc4ccccc4)c(C)oc3c3ccccc23)cc1	inconclusive: 35.5 µM [inhibitor, single point]	
Cc1ccc(NC(=O)CCc2nc3cccnc3n2-c2ccccc2)cc1Cl		inactive: -1.1% [at 46.1 µM]
COc1ccc(-c2csc3nc(-c4ccc(C)cc4)oc(=O)c23)cc1OC	inconclusive: 0.631 µM [inhibitor, full curve, poor fit]	
O=c1c2sc3ccccc3c2n(Cc2ccc(Cl)cc2)c(=O)n1Cc1ccco1		inactive: -10.3% [at 46.1 µM]
CCc1nc(Cl)c(C#N)c2c1CCCC2	inconclusive: 22.4 µM [inhibitor, single point]	
O=C(Nc1ccc(F)cc1)c1ccc(S(=O)(=O)NCc2cccnc2)cc1	inconclusive: 2.51 µM [inhibitor, full curve]	
COc1ccc(N=Cc2oc3ccc4ccccc4c3c2O)cc1		inactive: -4.28% [at 46.1 µM]
Cc1ccc(C(=O)N/N=C/c2ccc(-c3cccc(Cl)c3)o2)cn1	inconclusive: 8.91 µM [inhibitor, partial curve, poor fit]	
Cc1ccccc1Nc1c(-c2c[nH]c3ccccc23)nc2cccc(C)n12	inconclusive: 11.2 µM [activator, partial curve, poor fit]	
CN(C(=O)COC(=O)C1CCN(S(=O)(=O)c2ccc3c(c2)OCCO3)CC1)C1CCS(=O)(=O)C1 (configuration not stated)		inactive: -2.72%
O=C(NCc1nc(-c2ccccc2)cs1)c1ccccc1	inconclusive: 14.1 µM [inhibitor, partial curve, poor fit]	
CCN1C(=O)C(O)(CC(=O)c2c(C)coc2C)c2ccccc21 (configuration not stated)		inactive: 3.96% [at 46.1 µM]

Structure (SMILES)	Potency	activity change, negative = inhibition
COc1ccccc1Nc1nc(N)nc(-c2cc3ccccc3o2)n1	inconclusive: 0.92 µM [inhibitor, full curve]	
O=C(NCCSCc1ccccc1)c1ccc(C2SCC(=O)N2Cc2ccccc2)cc1 (configuration not stated)	inconclusive: 29.1 µM [inhibitor, single point]	
CCN(CC)CC(O)COc1ccc2c(c1)c(C(C)=O)c(C)n2-c1ccccc1 (configuration not stated)	inconclusive: 35.5 µM [inhibitor, single point]	
COc1cc(NC(=S)N2CCC(C(O)(c3ccccc3)c3ccccc3)CC2)cc(OC)c1	inconclusive: 29.1 µM [inhibitor, single point]	
O=C(Nc1ccccc1)C(=O)Nc1cccnc1	inconclusive: 0.794 µM [activator, partial curve, poor fit]	
NS(=O)(=O)c1cccc(NC(=O)c2cc3ccccc3o2)c1	inconclusive: 35.5 µM [inhibitor, single point]	
CCOc1ccccc1NC(=O)C1CCCCN1S(=O)(=O)c1ccccc1 (configuration not stated)	inconclusive: 0.891 µM [inhibitor, full curve, poor fit]	
CCOC(=O)c1c(-c2cccs2)csc1NC(=O)COC(=O)c1c(C)noc1C	inconclusive: 29.1 µM [inhibitor, single point]	
N=c1c2c(-c3ccccc3)c(-c3ccccc3)n(Cc3ccccc3)c2ncn1CCO	inconclusive: 35.5 µM [inhibitor, partial curve, poor fit]	
Cc1ccc(NC(=O)CCNC(=O)Cn2ccc3ccccc3c2=O)cc1F	inconclusive: 31.6 µM [activator, single point]	
Cc1nc2cc3nc(C)sc3cc2s1	inconclusive: 3.16 µM [activator, full curve]	
Cc1ccc(C)c(N2CCN(C(=O)c3ccc(Cn4c(=S)[nH]c5ccc(N6CCOCC6)cc5c4=O)cc3)CC2)c1		inactive: -10.8% [at 46.1 µM]
Cc1ccc(NC(=O)c2cc(-c3ccccc3)nn2-c2ccccc2)c(Br)c1	inconclusive: 1 µM [inhibitor, full curve, poor fit]	
COc1ccc(OC)c(NC(=O)C2CCN(c3ncccn3)CC2)c1		inactive: 12.2%
CC(OC(=O)c1nn(C)c(=O)c2ccccc12)C(=O)NC1CCCCC1C (configuration not stated)		inactive: 0.941%
O=C(CSCC(=O)OCn1nnc2ccccc2c1=O)Nc1ccc(Cl)cc1	inconclusive: 15.8 µM [inhibitor, partial curve, poor fit]	
O=C(CNS(=O)(=O)c1cccs1)N1CCN(c2ccccc2F)CC1	inactive	
CCn1c(SCC(=O)Nc2nc(C)cs2)nnc1-c1ccoc1C		inactive: -4.85%
CC(=O)Oc1cccc(/C=C2\C=C(c3ccc(C)cc3)OC2=O)c1		inactive: -2.59%
CCOC(=O)N1CCN(Cc2nc(-c3cccc(Cl)c3)no2)CC1	inconclusive: 3.98 µM [inhibitor, single point]	
O=[N+]([O-])c1ccc(N2CCCCC2)cc1NCCOc1ccccc1	inconclusive: 6.31 µM [activator, single point]	

Single values from the list.
Potency, Cc1ccc(C=NNC(=O)c2cc(-c3cccnc3)nc3ccccc23)o1 reads inconclusive: 1 µM [inhibitor, full curve, poor fit]
Potency, CC(Sc1nc2cc([N+](=O)[O-])ccc2n1-c1ccc(F)cc1)C(=O)NCc1ccc2c(c1)OCO2 (configuration not stated) reads inconclusive: 6.51 µM [activator, single point]
Potency, CCN(CC)CC(O)COc1ccc2c(c1)c(C(C)=O)c(C)n2-c1ccccc1 (configuration not stated) reads inconclusive: 35.5 µM [inhibitor, single point]
Potency, O=C(CNS(=O)(=O)c1cccs1)N1CCN(c2ccccc2F)CC1 reads inactive
activity change, negative = inhibition, CCn1c(SCC(=O)Nc2nc(C)cs2)nnc1-c1ccoc1C reads inactive: -4.85%

Source: PubChem BioAssay AID540276 (National Center for Advancing Translational Sciences (NCATS), 2011)
